# Measurements reported in PubChem BioAssay AID504834 (National Center for Advancing Translational Sciences (NCATS), 2011).
# Screen size: about 320,000 compounds; about 22,000 (6.9%) were called active. Inconclusive means that the source gave no clear call. Such entries were picked first, then a sample of the others. Calls follow the shape of the dose curve; as a rule, active = well fitted inhibition curve with a large enough effect; inconclusive = small, poorly fitted or top-dose-only effect, or another doubt; inactive = no such curve, though single readings can be large or run the other way. Potencies beside an inconclusive call are fits to weak or partial responses and may not hold up.
# Assay: Primary qHTS for delayed death inhibitors of the malarial parasite plastid, 96 hour incubation
# Details: P. falciparum luciferase reporter growth; series mostly up to 28.7 µM; activity change, negative = inhibition: at the top concentration
# Method in brief: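 Parasite growth measured via integrated firefly luciferase reporter in P. falciparum. Infected erythrocytes at 2% hematocrit, 0.05% parasitemia final were treated 96 hours at 37 C under 5% CO2, and luminescence was read.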
# % is scaled to controls: 0 for no effect and ±100 for the full control effect; potency is read from the fitted curve at half-maximal effect.
Compound,"activity change, negative = inhibition",Potency
CC(=O)Nc1ccc(NC(=O)CSc2ccc3nnc(-c4cccnc4)n3n2)cc1,inactive: 7.06%,–
CCN(CC(=O)Nc1ccc(NC(C)=O)cc1)C(=O)/C=C/c1cccs1,inactive: -10.7%,–
COc1ccc(CCC(=O)NC2CCCc3ccccc32)cc1OC (configuration not stated),inactive: 0.0423%,–
COc1cccc(C(=O)NC(=S)NCc2ccco2)c1,–,active: 3.7 µM
COc1ccc(C(=O)OCC(=O)c2c[nH]c3ccccc23)cc1OC,–,active: 4.65 µM
Cc1ccc(C)c(CN2CCC(CNC(=O)Nc3ccc(F)c(Cl)c3)CC2)c1,inactive: -0.335%,–
O=C(c1cc[n+]([O-])cc1)N1CCCC(N2CCN(c3cccc(C(F)(F)F)c3)CC2)C1 (configuration not stated),–,"inconclusive: 16.5 µM [inhibitor, single point]"
CCOC(=O)N1CCC(N2C(=O)c3ccc(C(=O)Nc4ccc(OC)cc4)cc3C2=O)CC1,–,"inconclusive: 9.28 µM [inhibitor, single point]"
CCOC(=O)CSc1nc2cc(C(=O)NCC3CCCO3)ccc2c(=O)n1Cc1ccco1 (configuration not stated),–,"inconclusive: 1.47 µM [inhibitor, partial curve, poor fit]"
COc1ccc(N(C)S(=O)(=O)c2ccc3c(c2)oc(=O)n3C)cc1,–,active: 7.38 µM
O=c1[nH]c(/C=C\c2ccc(O)c(O)c2)nc(O)c1[N+](=O)[O-],inactive: -18.3%,–
CC1CCCCC1NC(=O)CCCn1c(=S)[nH]c2ccccc2c1=O (configuration not stated),–,active: 14.7 µM
Cc1ccc(N2C(=O)c3ccc(C(=O)N4CCN(c5ccccc5F)CC4)cc3C2=O)cc1,–,active: 9.28 µM
CCOc1ccc(S(=O)(=O)NCc2cccs2)cc1C(C)C,–,"inconclusive: 9.28 µM [inhibitor, partial curve, poor fit]"
Cc1noc(C)c1S(=O)(=O)Nc1ccc(C(=O)NCc2ccccc2)cc1,–,"inconclusive: 16.5 µM [inhibitor, single point]"
C#CCOCCOCCOCCNc1nc(N2CCN(C(=O)CCCCCCCCCCNC(=O)Cn3cc(CCCCCN)nn3)CC2)nc(N2CCN(C(=O)CCCCCCCCCCNC(=O)[C@H]([C@@H](C)CC)n3cc(CCCCN=C(N)N)nn3)CC2)n1,–,active: 3.29 µM
Cc1ccc(S(=O)(=O)NCCC(=O)N2CCC(C(N)=O)CC2)cc1C,inactive: -5.98%,–
CCOc1ccc(NC(=O)CSc2nnc(COc3c(C)cccc3C)o2)cc1,–,"inconclusive: 10.4 µM [inhibitor, partial curve, poor fit]"
COc1ccc(C(CC(=O)Nc2cc([N+](=O)[O-])ccc2OC)c2ccccc2)cc1 (configuration not stated),inactive: -0.308%,–
COc1ccc(-n2c(SCC(=O)N3CCOCC3)nc3ccccc3c2=O)cc1,inactive: -0.236%,–
CCN(CC)CCN(C(=O)Cn1nnc(-c2ccc(C)o2)n1)C(C(=O)NC1CCCC1)c1ccc(F)cc1 (configuration not stated),–,"inconclusive: 10.4 µM [inhibitor, partial curve, poor fit]"
COC(=O)Nc1ccc(S(=O)(=O)N2CCCC(C(=O)Nc3cccnc3)C2)cc1 (configuration not stated),–,"inconclusive: 14.7 µM [inhibitor, single point]"
CCCCn1c(=N)n(CC(O)COc2ccccc2)c2ccccc21 (configuration not stated),–,"inconclusive: 11.7 µM [inhibitor, single point]"
COc1ccc(Nc2nc(NCC3CCCO3)nc(N)c2[N+](=O)[O-])cc1 (configuration not stated),–,"inconclusive: 16.5 µM [inhibitor, single point]"

Compound,"activity change, negative = inhibition",Potency
COc1cc2nc(N3CCN(C(=O)C4CCCO4)CC3)nc(N)c2cc1OC (configuration not stated),–,inactive
COc1cccc2sc3ccc(C#CC4(N)CCCCC4)cc3c(=O)c12,–,"inconclusive: 4.15 µM [inhibitor, partial curve, poor fit]"
Cc1ccc(-c2nnc(N3CCC(C)CC3)c3ccccc23)cc1,–,"inconclusive: 1.17 µM [inhibitor, partial curve, poor fit]"
CCOC(=O)N1CCN(c2ccc(C(=O)c3cccc(F)c3)cc2)CC1,inactive: 33.2%,–
CCOC(=O)N1CCN(CC(=O)Nc2nc3ccc(OC)cc3s2)CC1,–,"inconclusive: 18.5 µM [inhibitor, single point]"
Cc1ccccc1OCc1nc(-c2ccc(NC(=O)c3ccco3)cc2)no1,–,"inconclusive: 0.0522 µM [inhibitor, full curve, poor fit]"
Cc1ccc(C(C2=C(O)CC(C)(C)CC2=O)C2C(=O)CC(C)(C)CC2=O)s1 (configuration not stated),inactive: 49.1%,–
CCCNC(=O)c1ccccc1NC(=O)Cc1ccc(OC)c(S(=O)(=O)N2CCOCC2)c1,inactive: -2.1%,–
CCSc1nnc(Cn2c(=O)sc3ccccc32)n1-c1ccccc1C,inactive: 20.6%,–
COc1ccc(CCCC(=O)N/N=C/c2ccccc2OC)cc1,–,"inconclusive: 16.5 µM [inhibitor, single point]"
CCOCCCn1c(N)c(C(=O)Nc2sc3c(c2C(=O)OC)CCCC3)c2nc3ccccc3nc21,–,"inconclusive: 0.0033 µM [inhibitor, full curve, poor fit]"
CC(=O)c1c(C)[nH]c(C(=O)NCCc2ccc(Cl)cc2)c1C,inactive: 1.9%,–
CO/N=C/CC(=O)c1cnc(-c2ccc(Cl)cc2)s1,inactive: -1.86%,–
O=C(CCCc1nc2ccccc2s1)NCc1cccnc1,inactive: -11.1%,–
COc1cc2ccccc2cc1C(=O)Nc1ccc(O)cc1,–,"inconclusive: 18.5 µM [inhibitor, single point]"
CCC1COCCS(=O)(=O)N1Cc1ccc(Cl)cc1 (configuration not stated),inactive: 21.5%,–
CCN(CC)c1ccc(NC(=O)COc2ccc(N(C)S(=O)(=O)c3cccs3)cc2)cc1,–,"inconclusive: 10.4 µM [inhibitor, single point]"
O=C(CN1CCc2ccccc21)NN1CC(=O)N(c2ccc(Cl)cc2)CC1=O,–,"inconclusive: 18.5 µM [inhibitor, single point]"
Cc1ccc(C)c(N(CC(=O)NCCSCc2ccco2)S(C)(=O)=O)c1,–,"inconclusive: 9.28 µM [inhibitor, partial curve]"
COc1cccc(NC(=O)C2CC(=O)n3cnnc3S2)c1 (configuration not stated),inactive: 3.88% [at 5.75 µM],–
Cn1nccc1C(=O)N1CCCC(C(=O)c2ccc(Oc3ccccc3)cc2)C1 (configuration not stated),–,active: 2.94 µM
COC(=O)c1cc(S(=O)(=O)N2CCN(c3cccc(C)c3)C(C)C2)c[nH]1 (configuration not stated),–,"inconclusive: 18.5 µM [inhibitor, single point]"
Cn1cc(O)nc1NC(=O)Nc1cccc(Cl)c1,inactive: -12.6%,–
COc1cccc(NC(=O)C(=O)NCCCN2CCCC2=O)c1,inactive: 92.4%,–

Compound,"activity change, negative = inhibition",Potency
CC(C)NC(=O)C1CCN(C2CCN(C(=O)c3cc4c(s3)CCCCC4)CC2)CC1,–,"inconclusive: 18.5 µM [inhibitor, single point]"
COc1ccc(NC(=O)C2C3C=CC(O3)C2C(=O)O)cc1 (configuration not stated),–,"inconclusive: 18.5 µM [inhibitor, single point]"
COC(=O)c1nc2nc(-c3cccs3)cc(C(F)(F)F)n2n1,inactive: -13.3%,–
CCN(CC)CCCNC(=O)c1cc(-c2ccc(O)cc2)on1,–,"inconclusive: 18.5 µM [inhibitor, single point]"
CSc1ncc(OCc2ccccc2)c(=O)[nH]1,inactive: 39.3%,–
c1ccc2c(OCCCCN3CCCC3)cccc2c1,–,"inconclusive: 0.928 µM [inhibitor, full curve, poor fit]"
O=C(NCC1CCCO1)c1cccs1 (configuration not stated),–,"inconclusive: 11.7 µM [inhibitor, partial curve]"
COc1ccc(CC(=O)O/N=C(\N)Cc2ccc(OC)cc2)cc1,–,"inconclusive: 18.5 µM [inhibitor, single point]"
Nc1c(C(=O)NCc2ccc3c(c2)OCO3)c2nc3ccccc3nc2n1CCCN1CCOCC1,inactive: 13%,–
CC(=O)N1CCc2cc(S(=O)(=O)NCCC(=O)Nc3cc(C)cc(C)c3)ccc21,–,active: 5.22 µM
COc1cc(OC)c(C2=NOC(C(=O)Nc3c(C)n(C)n(-c4ccccc4)c3=O)C2)cc1Cl (configuration not stated),–,"inconclusive: 2.94 µM [inhibitor, single point]"
COC(=O)C1=C(C)N(Cc2ccccc2)C(=NCc2ccccc2)N[C@H]1c1ccccc1,–,active: 1.69 µM
Cc1cccc(-c2cc3nc(C)c(C)c(NCCCn4ccnc4)n3n2)c1,–,"inconclusive: 1.65 µM [inhibitor, partial curve]"
CCOC(=O)C1(Cc2ccccc2)CCCN(C(=O)c2ccc(-n3ccnc3)cc2)C1 (configuration not stated),–,"inconclusive: 18.5 µM [inhibitor, single point]"
CC(C)(C)c1ccc(NC(=O)c2ccccc2)c([N+](=O)[O-])c1,–,"inconclusive: 11.7 µM [inhibitor, single point]"
C/C=C/c1ccc(OCCOc2cc(C=O)ccc2OC)c(OC)c1,–,"inconclusive: 10.4 µM [inhibitor, single point]"
O=C(NCc1ccccn1)c1cccc([N+](=O)[O-])c1,–,"inconclusive: 10.4 µM [inhibitor, single point]"
O=C(CCN1N=C(c2ccccc2)CCC1=O)NCC1CCCO1 (configuration not stated),–,active: 3.7 µM
Fc1ccccc1-c1n[nH]c(=S)n1Cc1ccccc1,–,"inconclusive: 7.38 µM [inhibitor, partial curve]"
O=C(O)CCn1nnc2ccccc21,inactive: 21.6%,–
O=C(COc1ccc(Cl)cc1Cl)N1CCNC1=O,–,"inconclusive: 18.5 µM [inhibitor, single point]"
CCn1c(SCC(=O)N2CCCC(C)C2)nnc1-c1ccc(S(=O)(=O)N2CCN(C)CC2)cc1 (configuration not stated),–,"inconclusive: 0.0131 µM [inhibitor, full curve, poor fit]"
O=C(c1ccc(C(=O)N2CCOCC2)s1)N1CCOCC1,inactive: -8.55%,–
COc1cc(/C=C2\SC(=S)N(CCCCC(=O)O)C2=O)ccc1OS(=O)(=O)c1ccc(C)cc1,–,"inconclusive: 13.1 µM [inhibitor, partial curve]"

# Given tab-delimited: 4 of the compounds above
Compound	activity change, negative = inhibition	Potency
CCOC(=O)N1CCC(N2C(=O)c3ccc(C(=O)Nc4ccc(OC)cc4)cc3C2=O)CC1	–	inconclusive: 9.28 µM [inhibitor, single point]
CCOC(=O)CSc1nc2cc(C(=O)NCC3CCCO3)ccc2c(=O)n1Cc1ccco1 (configuration not stated)	–	inconclusive: 1.47 µM [inhibitor, partial curve, poor fit]
COc1ccc(N(C)S(=O)(=O)c2ccc3c(c2)oc(=O)n3C)cc1	–	active: 7.38 µM
O=c1[nH]c(/C=C\c2ccc(O)c(O)c2)nc(O)c1[N+](=O)[O-]	inactive: -18.3%	–
